Measurements from doi:10.1101/2023.05.31.543024.
Changes are numbered by the printed parent chain. These are yes or no findings as the source states them, for the method shown. Binding seen in cells or lysates may run through a third protein. Some results given as binding are weak or reduced against the parent protein; the word gives no strength. Sequences can lack the tags named with a protein.

Tests used:
Experiment in all cases: co-IP
[1] = biological target: T1, HA-DRG1 LIYVD (L155E + I260R + Y262A + V264K + D280Y) (human) (UniProt Q9Y295)
T1 sequence: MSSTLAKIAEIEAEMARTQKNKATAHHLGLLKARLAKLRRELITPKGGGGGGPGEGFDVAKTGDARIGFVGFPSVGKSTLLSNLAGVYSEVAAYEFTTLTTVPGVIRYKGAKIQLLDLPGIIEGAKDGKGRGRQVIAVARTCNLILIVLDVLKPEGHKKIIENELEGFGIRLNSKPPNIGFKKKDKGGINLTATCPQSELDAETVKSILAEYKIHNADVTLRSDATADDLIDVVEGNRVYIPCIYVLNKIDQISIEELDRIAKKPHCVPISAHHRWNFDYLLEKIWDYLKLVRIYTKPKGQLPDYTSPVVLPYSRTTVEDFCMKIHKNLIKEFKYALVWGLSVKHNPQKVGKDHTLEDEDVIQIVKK

HA-DRG1 V264K (human) = biological target: T2, HA-DRG1 V264K (human) (UniProt Q9Y295)
T2 sequence: T1 sequence with E155L, R260I, A262Y, Y280D

[2] = biological target: T3, HA-DRG2 D257A + D277A (human) (UniProt P55039)
T3 sequence: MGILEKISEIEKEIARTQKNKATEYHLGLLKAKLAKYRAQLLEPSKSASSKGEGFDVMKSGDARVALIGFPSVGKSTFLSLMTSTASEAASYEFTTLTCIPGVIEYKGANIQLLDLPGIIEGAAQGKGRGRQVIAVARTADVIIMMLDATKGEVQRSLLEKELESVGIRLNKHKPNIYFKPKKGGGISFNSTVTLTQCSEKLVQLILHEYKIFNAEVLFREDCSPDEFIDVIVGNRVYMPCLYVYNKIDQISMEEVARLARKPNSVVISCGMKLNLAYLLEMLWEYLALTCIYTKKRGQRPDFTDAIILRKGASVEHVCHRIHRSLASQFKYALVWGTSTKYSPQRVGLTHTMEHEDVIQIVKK

HA-DRG2 E153L (human) = biological target: T4, HA-DRG2 E153L (human) (UniProt P55039)
T4 sequence: T3 sequence with E153L, A257D, A277D

HA-DRG2 R258I (human) = biological target: T5, HA-DRG2 R258I (human) (UniProt P55039)
T5 sequence: T3 sequence with A257D, R258I, A277D

- binding [1]: binds
- binding (HA-DRG1 V264K (human)): no binding
- binding [2]: binds
- binding (HA-DRG2 E153L (human)): binds
- binding (HA-DRG2 R258I (human)): binds
B1: DRG family regulatory protein 2 (DFRP2), endogenous (protein, UniProt Q9H446 1-243)
chain: MTDYGEEQRNELEALESIYPDSFTVLSENPPSFTITVTSEAGENDETVQTTLKFTYSEKYPDEAPLYEIFSQENLEDNDVSDILKLLALQAEENLGMVMIFTLVTAVQEKLNEIVDQIKTRREEEKKQKEKEAEEAEKQLFHGTPVTIENFLNWKAKFDAELLEIKKKRMKEEEQAGKNKLSGKQLFETDHNLDTSDIQFLEDAGNNVEVDESLFQEMDDLELEDDEDDPDYNPADPESDSAD
